Drawing on paper PMC2906515, this text covers binding for one substance.

These are yes or no findings as the source states them, for the method shown. Binding calls can cover weak binding; strength is not graded here. Where a sequence is shown, tags or fusion partners need not be part of it.

In this experiment the target is T1, MBP-TRPV4-Ct (C-terminal cytoplasmic domain of TRPV4 fused with MBP) (UniProt Q9ERZ8).
T1 sequence: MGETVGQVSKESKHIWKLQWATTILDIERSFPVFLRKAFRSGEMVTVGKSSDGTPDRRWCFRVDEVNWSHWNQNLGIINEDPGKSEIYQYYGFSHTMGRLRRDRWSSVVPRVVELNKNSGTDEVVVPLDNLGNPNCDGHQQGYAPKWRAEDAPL
The experiment is described as follows: pull-down; MBP fusion protein on amylose resin incubated with purified soluble tubulin (1 mg/ml) or purified soluble actin (0.1 mg/ml), 1 hour at RT, PEM-S buffer; actin in the presence or absence of Ca2+; eluted with maltose; immunoblot; both purified. In general terms: Immunoblotting shows a protein as a band on a membrane.

As to “neuron-specific β-III tubulin in purified porcine brain tubulin (complex)”, the binding entry is given as “binds”.
